Measurements as given in paper PMC10195082.
Results are given in words; binding and its absence hold for the method and conditions named. In cells and extracts the contact can be indirect. Here binding means that the protein was enriched with, or labelled near, the bait; the list need not be complete.

Amino acid sequences for entries named in this document (tags omitted). Residues count along the entry.
UniProt Q9UBX2, residues 154-424: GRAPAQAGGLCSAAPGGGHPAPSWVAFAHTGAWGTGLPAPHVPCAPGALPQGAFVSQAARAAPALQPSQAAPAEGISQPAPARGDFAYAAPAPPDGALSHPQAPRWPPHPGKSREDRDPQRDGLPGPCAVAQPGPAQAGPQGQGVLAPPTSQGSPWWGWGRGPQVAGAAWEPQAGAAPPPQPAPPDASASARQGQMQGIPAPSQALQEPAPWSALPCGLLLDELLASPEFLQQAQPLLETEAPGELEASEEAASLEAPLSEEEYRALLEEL
UniProt P42224: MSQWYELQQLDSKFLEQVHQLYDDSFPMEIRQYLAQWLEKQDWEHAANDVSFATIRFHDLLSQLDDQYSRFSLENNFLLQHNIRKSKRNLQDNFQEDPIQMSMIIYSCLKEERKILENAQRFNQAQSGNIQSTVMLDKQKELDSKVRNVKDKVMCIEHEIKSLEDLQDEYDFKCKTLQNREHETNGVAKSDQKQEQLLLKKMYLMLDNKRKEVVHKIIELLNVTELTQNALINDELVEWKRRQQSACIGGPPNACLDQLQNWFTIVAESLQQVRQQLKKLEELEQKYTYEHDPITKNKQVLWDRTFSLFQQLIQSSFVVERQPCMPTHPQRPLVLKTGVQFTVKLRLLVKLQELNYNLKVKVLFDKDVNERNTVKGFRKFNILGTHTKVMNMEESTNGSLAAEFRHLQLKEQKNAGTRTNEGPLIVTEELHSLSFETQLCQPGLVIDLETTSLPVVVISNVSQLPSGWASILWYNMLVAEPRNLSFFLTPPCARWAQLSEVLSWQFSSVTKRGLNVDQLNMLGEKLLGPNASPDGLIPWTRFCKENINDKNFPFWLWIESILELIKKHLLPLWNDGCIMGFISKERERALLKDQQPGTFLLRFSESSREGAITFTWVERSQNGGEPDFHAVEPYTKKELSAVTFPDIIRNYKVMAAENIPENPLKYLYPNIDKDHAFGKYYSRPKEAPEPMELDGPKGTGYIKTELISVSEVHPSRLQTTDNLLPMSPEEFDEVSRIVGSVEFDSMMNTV
UniProt O00571: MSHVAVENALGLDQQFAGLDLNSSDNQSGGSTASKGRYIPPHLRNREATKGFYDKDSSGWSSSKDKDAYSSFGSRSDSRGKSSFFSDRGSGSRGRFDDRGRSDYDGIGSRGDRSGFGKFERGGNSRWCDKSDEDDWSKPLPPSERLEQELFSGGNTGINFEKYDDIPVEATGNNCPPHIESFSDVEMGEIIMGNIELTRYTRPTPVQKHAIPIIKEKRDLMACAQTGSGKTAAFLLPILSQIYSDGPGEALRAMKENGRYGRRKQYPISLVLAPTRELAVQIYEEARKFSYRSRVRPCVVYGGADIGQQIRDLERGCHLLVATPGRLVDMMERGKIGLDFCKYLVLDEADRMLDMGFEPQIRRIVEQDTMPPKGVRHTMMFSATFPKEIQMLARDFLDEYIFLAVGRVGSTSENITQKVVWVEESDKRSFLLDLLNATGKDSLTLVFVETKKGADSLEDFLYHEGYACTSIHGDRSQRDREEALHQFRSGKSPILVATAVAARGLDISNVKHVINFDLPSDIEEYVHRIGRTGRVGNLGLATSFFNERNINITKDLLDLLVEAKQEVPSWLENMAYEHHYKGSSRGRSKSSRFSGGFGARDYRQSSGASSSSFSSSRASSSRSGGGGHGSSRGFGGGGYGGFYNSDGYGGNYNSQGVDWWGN

Each substance was assayed against 3xFLAG-NLS-DUX4-CTD (DUX4 aa154-424) (human) (UniProt Q9UBX2) (assay: affinity purification with mass spectrometry; anti-FLAG [M2] cross-linked to beads, extract of MB135 cells with doxycycline-induced FLAG-tagged bait, ± IFNγ; elution with FLAG peptide; LC-MS (Orbitrap Eclipse); two experiments).

binding, binds:
STAT1 (endogenous, total, MB135 cells) (from UniProt P42224 1-750)
DDX3X (endogenous) (from UniProt O00571 1-662)
PRKDC (endogenous) (from UniProt P78527 1-4128)
